{
  "source": "patent US20080227854A1",
  "about": "“Compound 3-(1, 1-Dimethyl-Allyl)-6-Hydroxy-Chromen-2-One and its Pharmaceutically Acceptable Salts Thereof” (COUNCIL OF SCIENTIFIC & INDUSTRIAL RESEARCH, priority 2007, published 2008)",
  "system": "murine macrophage cells (J774)",
  "assay": "Cytotoxicity assay using MTT",
  "type": "cell-based",
  "details": "100 μg/ml",
  "description": "The murine macrophage cells were plated in cell culture plates and then treated with or without the crude extract/ethyl ether fraction/purified compound. The cells were then washed and challenged with LPS (1 μg/ml) for 16 hours. The MTT (5 mg/ml in PBS) was then added and the cells were further incubated for 4 hours at 37° C. in CO2 incubator. MTT solubilization buffer was then added and absorbance at 590 nm was determined.",
  "note": "Some of these results come from one statement about several compounds together.",
  "data": [
    {"smiles": "C=CC(C)(C)c1cc2cc(O)ccc2oc1=O", "note": "[Rg-001, 3-(1,1-dimethyl-allyl)-6-hydroxy-chromen-2-one]", "values": [
      {"measurement": "viability", "result": "> 85", "unit": "%"}
    ]}
  ]
}
